Laboratory results from paper PMC9945626.
These are yes or no findings as the source states them, for the method shown. In cells and extracts the contact can be indirect. Some entries that bind do so weakly or less than the wild type.

Amino acid sequences for entries named in this document (tags omitted). A change or cut given only in a name is not applied to a line headed by its entry. Chains listed by the source or under a name are the forms on record and can include a tag or linker.
UniProt Q9HCE7: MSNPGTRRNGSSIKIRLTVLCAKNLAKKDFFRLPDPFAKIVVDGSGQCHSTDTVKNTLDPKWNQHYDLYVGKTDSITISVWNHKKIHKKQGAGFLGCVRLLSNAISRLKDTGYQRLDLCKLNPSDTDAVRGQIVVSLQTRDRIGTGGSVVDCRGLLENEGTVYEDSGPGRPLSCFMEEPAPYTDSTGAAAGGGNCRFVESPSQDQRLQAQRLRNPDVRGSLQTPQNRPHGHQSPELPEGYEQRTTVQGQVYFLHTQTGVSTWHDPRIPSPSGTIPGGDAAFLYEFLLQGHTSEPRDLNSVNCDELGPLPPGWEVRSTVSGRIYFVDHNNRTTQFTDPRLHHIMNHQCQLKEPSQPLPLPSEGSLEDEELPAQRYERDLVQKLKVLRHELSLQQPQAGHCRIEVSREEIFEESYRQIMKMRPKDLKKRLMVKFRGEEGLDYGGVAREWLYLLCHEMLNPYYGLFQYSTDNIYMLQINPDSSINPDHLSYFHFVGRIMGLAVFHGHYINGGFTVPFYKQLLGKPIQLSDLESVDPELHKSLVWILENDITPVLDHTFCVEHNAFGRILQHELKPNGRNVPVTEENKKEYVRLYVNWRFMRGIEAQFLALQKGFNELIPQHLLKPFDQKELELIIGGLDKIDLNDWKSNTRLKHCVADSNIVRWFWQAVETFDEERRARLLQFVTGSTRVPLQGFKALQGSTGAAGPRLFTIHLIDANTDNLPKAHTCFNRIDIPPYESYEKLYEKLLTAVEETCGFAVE
HA-Smurf1 (Q9HCE7-2, form named): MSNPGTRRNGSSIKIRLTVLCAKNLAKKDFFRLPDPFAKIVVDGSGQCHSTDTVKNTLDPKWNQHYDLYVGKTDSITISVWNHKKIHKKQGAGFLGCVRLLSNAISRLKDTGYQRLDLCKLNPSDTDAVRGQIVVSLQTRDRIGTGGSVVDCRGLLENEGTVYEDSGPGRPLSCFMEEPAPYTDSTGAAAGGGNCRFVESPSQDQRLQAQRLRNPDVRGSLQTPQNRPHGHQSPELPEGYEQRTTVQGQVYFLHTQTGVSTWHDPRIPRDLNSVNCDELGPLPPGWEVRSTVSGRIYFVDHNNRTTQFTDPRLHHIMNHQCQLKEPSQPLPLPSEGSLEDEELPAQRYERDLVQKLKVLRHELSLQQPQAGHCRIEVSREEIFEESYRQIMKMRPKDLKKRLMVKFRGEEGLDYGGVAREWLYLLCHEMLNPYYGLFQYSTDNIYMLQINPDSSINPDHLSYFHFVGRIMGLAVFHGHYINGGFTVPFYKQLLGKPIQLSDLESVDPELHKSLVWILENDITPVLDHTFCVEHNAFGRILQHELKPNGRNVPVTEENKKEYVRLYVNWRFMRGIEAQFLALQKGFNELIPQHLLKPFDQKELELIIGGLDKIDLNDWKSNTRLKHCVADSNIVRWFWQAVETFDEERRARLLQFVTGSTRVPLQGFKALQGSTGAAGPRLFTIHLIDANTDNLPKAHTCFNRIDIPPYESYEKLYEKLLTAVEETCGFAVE

Experiments:
[1] = target: GFP-p62 (UniProt Q13501); assay: co-IP; 293T (text: LN229) overexpressing GFP-p62 and Flag-tagged Smurf1 constructs; lysates immunoprecipitated with anti-GFP antibody, blots anti-GFP and anti-Flag
[2] = target: HA-Smurf1 (UniProt Q9HCE7); assay: co-IP; 293T (text: LN229) treated with control siRNA, transfected with HA or HA-Smurf1; immunoprecipitated with HA antibody, blots anti-p62, anti-NBR1, anti-HA
[3] = target: endogenous Smurf1 (SMAD Specific E3 Ubiquitin Protein Ligase 1) (human (endogenous in 293T)) (UniProt Q9HCE7); assay: co-IP; 293T lysates immunoprecipitated with IgG or anti-Smurf1 antibody and protein G agarose, endogenous proteins, blots for p62, LC3B, Smurf1; untreated (Fig. 1E) or MG132-treated cells (Fig. 4D), si-Control or si-p62 (Fig. 4F); lysis buffer 50 mM Tris pH 8.0, 150 mM NaCl, 1% NP40, 0.5% sodium deoxycholate

## Flag-Smurf1 (from UniProt Q9HCE7-2 1-731)
[1]
  binding: binds

## endogenous p62 (SQSTM1, Sequestosome-1) (from UniProt Q13501 1-440)
[2]
  binding: binds
[3]
  binding: binds
